In assay [1] the target is endogenous DPP9 (human (endogenous in HeLa and DG-75)), Q86TI2. Put plainly: co-IP; endogenous proteins from HeLa cells treated with different cross-linkers; binding observed with the sulfhydryl cross-linker DPDPB (spacer 19.9 Å); DPP9 immunoprecipitated. The note with it: remark: other sources report otherwise.
For assay [2], the target named is endogenous DPP9 (human (endogenous in HeLa and DG-75)) (UniProt Q86TI2). The assay can be described thus: proximity ligation; in situ PLA of DPP9-Syk in HeLa cells treated with 10 µM synthetic SLRFLYEG complexed with the carrier peptide pep1; control cells with pep1 alone; only the binder purified.

Amino acid sequences for entries named in this document (tags omitted).
UniProt Q86TI2: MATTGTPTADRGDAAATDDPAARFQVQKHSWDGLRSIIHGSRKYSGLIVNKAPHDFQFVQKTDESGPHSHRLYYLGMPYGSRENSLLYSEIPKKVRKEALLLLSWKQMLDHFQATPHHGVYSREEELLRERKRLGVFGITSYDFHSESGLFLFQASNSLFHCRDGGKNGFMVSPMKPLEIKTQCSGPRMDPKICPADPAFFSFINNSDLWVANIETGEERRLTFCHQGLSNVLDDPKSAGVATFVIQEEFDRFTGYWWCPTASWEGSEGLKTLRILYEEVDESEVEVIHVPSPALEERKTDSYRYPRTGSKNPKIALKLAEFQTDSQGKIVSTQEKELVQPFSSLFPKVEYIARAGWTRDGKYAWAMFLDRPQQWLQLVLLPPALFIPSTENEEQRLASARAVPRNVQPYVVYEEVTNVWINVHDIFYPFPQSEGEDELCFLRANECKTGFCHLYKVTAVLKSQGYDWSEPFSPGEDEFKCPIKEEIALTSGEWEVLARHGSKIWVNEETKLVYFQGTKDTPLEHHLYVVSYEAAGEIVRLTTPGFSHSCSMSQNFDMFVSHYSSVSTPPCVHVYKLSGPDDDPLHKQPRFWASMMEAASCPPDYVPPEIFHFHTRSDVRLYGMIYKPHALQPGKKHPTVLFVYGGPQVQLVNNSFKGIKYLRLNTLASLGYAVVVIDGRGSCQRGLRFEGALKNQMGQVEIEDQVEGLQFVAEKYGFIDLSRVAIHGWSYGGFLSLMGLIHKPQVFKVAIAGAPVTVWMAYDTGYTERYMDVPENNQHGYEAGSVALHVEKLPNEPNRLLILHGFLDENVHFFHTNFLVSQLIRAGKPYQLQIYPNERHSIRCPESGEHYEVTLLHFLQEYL

These are yes or no findings as the source states them, for the method shown. Binding seen in cells or lysates may run through a third protein. Some results given as binding are weak or reduced against the parent protein; the word gives no strength.

B1: endogenous DPP8, Q6V1X1 1-898 (enzyme)
chain: MWKRSEQMKIKSGKCNMAAAMETEQLGVEIFETADCEENIESQDRPKLEPFYVERYSWSQLKKLLADTRKYHGYMMAKAPHDFMFVKRNDPDGPHSDRIYYLAMSGENRENTLFYSEIPKTINRAAVLMLSWKPLLDLFQATLDYGMYSREEELLRERKRIGTVGIASYDYHQGSGTFLFQAGSGIYHVKDGGPQGFTQQPLRPNLVETSCPNIRMDPKLCPADPDWIAFIHSNDIWISNIVTREERRLTYVHNELANMEEDARSAGVATFVLQEEFDRYSGYWWCPKAETTPSGGKILRILYEENDESEVEIIHVTSPMLETRRADSFRYPKTGTANPKVTFKMSEIMIDAEGRIIDVIDKELIQPFEILFEGVEYIARAGWTPEGKYAWSILLDRSQTRLQIVLISPELFIPVEDDVMERQRLIESVPDSVTPLIIYEETTDIWINIHDIFHVFPQSHEEEIEFIFASECKTGFRHLYKITSILKESKYKRSSGGLPAPSDFKCPIKEEIAITSGEWEVLGRHGSNIQVDEVRRLVYFEGTKDSPLEHHLYVVSYVNPGEVTRLTDRGYSHSCCISQHCDFFISKYSNQKNPHCVSLYKLSSPEDDPTCKTKEFWATILDSAGPLPDYTPPEIFSFESTTGFTLYGMLYKPHDLQPGKKYPTVLFIYGGPQVQLVNNRFKGVKYFRLNTLASLGYVVVVIDNRGSCHRGLKFEGAFKYKMGQIEIDDQVEGLQYLASRYDFIDLDRVGIHGWSYGGYLSLMALMQRSDIFRVAIAGAPVTLWIFYDTGYTERYMGHPDQNEQGYYLGSVAMQAEKFPSEPNRLLLLHGFLDENVHFAHTSILLSFLVRAGKPYDLQIYPQERHSIRVPESGEHYELHLLHYLQENLGSRIAALKVI
As for B1, the binding entry in assay [1] is recorded as “no binding”.
In the case of SLRFLYEG [allosteric DPP8/9 peptide inhibitor SLRFLYEG], the binding result in assay [2] is recorded as “binds”.

These data come from paper PMC5039030.
